The supplement of paper PMC10849652
Some of the results follow.

Chains of the proteins cited; added tags and fusions are not shown. Lines headed by an entry give the natural chain unless they say otherwise; changes in a name come on top.
UniProt O14730: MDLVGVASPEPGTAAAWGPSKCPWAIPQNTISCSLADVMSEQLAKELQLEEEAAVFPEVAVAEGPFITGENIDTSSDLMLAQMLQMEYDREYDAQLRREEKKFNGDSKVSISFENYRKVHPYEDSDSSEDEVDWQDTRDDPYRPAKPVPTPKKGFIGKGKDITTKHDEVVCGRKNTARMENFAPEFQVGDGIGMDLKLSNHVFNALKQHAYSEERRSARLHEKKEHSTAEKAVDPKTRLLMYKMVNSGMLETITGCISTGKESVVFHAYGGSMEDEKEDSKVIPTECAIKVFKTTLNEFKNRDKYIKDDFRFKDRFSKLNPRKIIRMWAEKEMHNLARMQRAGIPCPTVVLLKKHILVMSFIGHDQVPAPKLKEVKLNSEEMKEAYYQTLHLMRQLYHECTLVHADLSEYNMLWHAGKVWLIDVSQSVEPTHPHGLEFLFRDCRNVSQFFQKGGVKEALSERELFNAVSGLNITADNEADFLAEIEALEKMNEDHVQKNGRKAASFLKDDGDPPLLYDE
UniProt O75695: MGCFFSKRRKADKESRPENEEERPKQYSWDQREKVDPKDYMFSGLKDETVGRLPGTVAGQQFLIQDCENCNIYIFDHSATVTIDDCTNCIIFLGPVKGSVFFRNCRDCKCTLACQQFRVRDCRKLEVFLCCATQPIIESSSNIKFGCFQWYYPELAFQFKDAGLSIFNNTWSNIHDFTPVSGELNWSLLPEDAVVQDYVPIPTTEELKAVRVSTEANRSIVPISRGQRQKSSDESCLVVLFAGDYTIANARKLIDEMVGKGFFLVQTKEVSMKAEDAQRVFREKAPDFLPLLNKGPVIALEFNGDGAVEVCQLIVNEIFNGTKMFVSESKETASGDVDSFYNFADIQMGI
UniProt Q7L0Q8: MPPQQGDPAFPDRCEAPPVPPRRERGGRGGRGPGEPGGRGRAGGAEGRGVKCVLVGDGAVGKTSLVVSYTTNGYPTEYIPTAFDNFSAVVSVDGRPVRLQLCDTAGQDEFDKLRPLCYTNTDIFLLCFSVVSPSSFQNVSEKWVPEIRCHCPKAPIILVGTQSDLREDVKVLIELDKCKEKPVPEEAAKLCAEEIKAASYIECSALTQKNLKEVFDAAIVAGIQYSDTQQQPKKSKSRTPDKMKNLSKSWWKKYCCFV
UniProt P49247: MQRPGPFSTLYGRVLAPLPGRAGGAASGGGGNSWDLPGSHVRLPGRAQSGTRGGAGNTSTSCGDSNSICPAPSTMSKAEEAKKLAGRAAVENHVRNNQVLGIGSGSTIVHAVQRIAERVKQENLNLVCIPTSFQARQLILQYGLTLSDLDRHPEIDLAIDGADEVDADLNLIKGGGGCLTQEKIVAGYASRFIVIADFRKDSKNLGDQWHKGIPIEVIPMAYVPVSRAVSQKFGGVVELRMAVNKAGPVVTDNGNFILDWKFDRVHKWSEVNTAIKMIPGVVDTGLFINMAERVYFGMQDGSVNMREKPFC
UniProt Q9Y4L5, whole entry, looked up: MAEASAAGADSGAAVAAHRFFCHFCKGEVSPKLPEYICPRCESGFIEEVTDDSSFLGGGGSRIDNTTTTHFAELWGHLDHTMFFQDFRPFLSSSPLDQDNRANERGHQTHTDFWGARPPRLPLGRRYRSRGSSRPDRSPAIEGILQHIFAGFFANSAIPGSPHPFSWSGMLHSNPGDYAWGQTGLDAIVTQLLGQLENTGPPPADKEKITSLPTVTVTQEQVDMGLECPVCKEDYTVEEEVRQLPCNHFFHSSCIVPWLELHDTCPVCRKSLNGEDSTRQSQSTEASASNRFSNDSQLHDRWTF
UniProt Q13129: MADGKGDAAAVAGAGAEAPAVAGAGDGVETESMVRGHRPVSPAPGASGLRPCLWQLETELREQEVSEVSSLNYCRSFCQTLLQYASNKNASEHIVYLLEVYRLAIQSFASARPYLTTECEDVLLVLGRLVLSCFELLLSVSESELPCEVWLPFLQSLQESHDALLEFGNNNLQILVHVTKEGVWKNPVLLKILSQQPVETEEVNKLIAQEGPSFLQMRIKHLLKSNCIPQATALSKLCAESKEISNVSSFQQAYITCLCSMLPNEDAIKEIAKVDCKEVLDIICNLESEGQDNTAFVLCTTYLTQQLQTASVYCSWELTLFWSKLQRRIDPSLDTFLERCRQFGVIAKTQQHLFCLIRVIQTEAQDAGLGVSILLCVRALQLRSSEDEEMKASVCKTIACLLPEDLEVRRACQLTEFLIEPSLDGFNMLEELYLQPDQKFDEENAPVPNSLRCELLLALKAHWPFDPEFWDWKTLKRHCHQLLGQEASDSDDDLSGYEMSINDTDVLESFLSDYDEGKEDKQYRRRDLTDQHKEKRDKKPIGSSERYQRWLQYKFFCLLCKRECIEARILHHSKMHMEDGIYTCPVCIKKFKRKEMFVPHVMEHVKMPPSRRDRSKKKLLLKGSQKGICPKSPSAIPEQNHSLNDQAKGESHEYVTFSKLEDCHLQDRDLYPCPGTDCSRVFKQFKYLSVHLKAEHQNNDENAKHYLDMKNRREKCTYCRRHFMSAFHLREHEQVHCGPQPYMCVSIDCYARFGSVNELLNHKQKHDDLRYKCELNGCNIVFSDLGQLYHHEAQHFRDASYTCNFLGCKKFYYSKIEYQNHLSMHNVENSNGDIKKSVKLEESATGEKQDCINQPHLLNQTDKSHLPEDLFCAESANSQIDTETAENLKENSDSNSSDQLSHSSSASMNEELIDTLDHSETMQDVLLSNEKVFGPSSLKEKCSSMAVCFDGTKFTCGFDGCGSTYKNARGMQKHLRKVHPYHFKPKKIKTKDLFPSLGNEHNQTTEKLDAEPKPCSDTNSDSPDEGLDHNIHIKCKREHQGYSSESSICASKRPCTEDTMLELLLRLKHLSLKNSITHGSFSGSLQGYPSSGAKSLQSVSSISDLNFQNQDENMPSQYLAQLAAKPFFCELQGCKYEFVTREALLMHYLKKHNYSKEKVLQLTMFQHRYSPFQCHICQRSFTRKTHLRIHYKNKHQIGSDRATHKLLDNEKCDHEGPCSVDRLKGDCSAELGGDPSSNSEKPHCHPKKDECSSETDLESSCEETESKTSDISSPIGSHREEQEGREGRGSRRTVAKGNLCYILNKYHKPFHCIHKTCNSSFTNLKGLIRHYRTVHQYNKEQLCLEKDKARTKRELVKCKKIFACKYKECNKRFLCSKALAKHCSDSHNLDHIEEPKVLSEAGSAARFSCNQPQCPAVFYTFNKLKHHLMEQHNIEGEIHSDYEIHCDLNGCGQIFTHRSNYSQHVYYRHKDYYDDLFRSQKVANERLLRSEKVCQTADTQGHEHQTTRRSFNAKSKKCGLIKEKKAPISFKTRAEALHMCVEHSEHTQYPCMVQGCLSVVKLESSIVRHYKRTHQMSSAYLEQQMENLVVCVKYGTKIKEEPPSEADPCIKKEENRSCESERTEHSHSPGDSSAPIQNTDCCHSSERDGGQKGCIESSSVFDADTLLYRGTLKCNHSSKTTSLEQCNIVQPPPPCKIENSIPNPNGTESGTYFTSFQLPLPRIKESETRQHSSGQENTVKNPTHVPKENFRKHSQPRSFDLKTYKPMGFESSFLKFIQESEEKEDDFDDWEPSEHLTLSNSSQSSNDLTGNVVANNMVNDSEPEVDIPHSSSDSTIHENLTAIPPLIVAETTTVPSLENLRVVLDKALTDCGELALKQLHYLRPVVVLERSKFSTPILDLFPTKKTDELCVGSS
UniProt Q86UA6: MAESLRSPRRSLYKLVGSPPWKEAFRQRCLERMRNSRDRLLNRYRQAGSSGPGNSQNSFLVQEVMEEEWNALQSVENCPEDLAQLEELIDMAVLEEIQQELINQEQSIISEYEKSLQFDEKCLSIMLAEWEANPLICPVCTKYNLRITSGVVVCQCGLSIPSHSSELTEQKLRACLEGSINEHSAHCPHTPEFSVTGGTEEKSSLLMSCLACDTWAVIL

Key:
Experiment in all cases: log2 fold change, soluble protein after heating vs DMSO (PISA); higher = thermal stabilisation; K562 lysate, 10 uM; active = over 0.2 and 3.5 SD of the protein, either way, in both replicates (recomputed)
erlotinib = compound: C#Cc1cccc(Nc2ncnc3cc(OCCOC)c(OCCOC)cc23)c1 [erlotinib]
Method in brief: (§1)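 K562 pellets were dounce-homogenised in PBS pH 7.4 containing 1 mM MgCl2, and the crude extract, at 1 mg/mL protein, was exposed to 10 μM compound for 30 min. Aliquots were heated for 3 min across 48°C-58°C, pooled, brought to 0.5% NP-40 at 4°C and spun at 21,000xg for 90 min, with the supernatant taken as soluble protein. TMTpro 16plex LC-MS/MS with equalised channel sums quantified that protein. Values are log-two fold changes in thermal stability relative to solvent controls, taken from duplicates.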

[1] = compound: C/C(=N\NC(=O)C1=CC(=CC=C1)S(=O)(=O)N2CCOCC2)/C3=C(C=CC(=C3)Cl)O
Method in brief: as §1

[2] = compound: C1=CC(=CC=C1C2=NC3=C(N2)C=C(C=C3)C(=O)N)OC4=CC=C(C=C4)Cl
Method in brief: as §1

[3] = compound: C1=CC2=C(C=CC(=C2)/C=C\3/C(=O)NC(=NCC4=CC=CS4)S3)N=C1
Method in brief: as §1

[4] = compound: C1=CC2=NC=CN=C2C=C1/C=C/3\C(=O)NC(=O)S3
Method in brief: as §1

[5] = compound: C1=CC=C(C=C1)C2=NC(=C(N2)C3=CC=NC=C3)C4=CC(=C(C=C4)Cl)O
Method in brief: as §1

[6] = compound: C1=CC=C2C(=C1)C3=NNC4=CC=CC(=C43)C2=O
Method in brief: as §1

[7] = compound: C1CCN(C1)C(=O)NC2=CC=CC(=C2)NC3=NC=C(C(=N3)NCCC4=CN=CN4)Br
Method in brief: as §1

[8] = compound: C1CN(CCC1(CC2=CC=C(C=C2)Cl)N)C3=NC=NC4=C3C=CN4
Method in brief: as §1

IRAK-1-4 Inhibitor I = compound: C1COCCN1CCN2C3=CC=CC=C3N=C2NC(=O)C4=CC(=CC=C4)[N+](=O)[O-] [IRAK-1-4 Inhibitor I]
Method in brief: as §1

ibrutinib = compound: C=CC(=O)N1CCC[C@@H](n2nc(-c3ccc(Oc4ccccc4)cc3)c3c(N)ncnc32)C1 [ibrutinib]
Method in brief: as §1

[9] = compound: CC(=O)c1cnc2ccc(-c3cc(Cl)c(O)c(Cl)c3)nc2c1N[C@H]1CC[C@H](CN(C)C)CC1
Method in brief: as §1

ralimetinib = compound: CC(C)(C)Cn1c(N)nc2ccc(-c3[nH]c(C(C)(C)C)nc3-c3ccc(F)cc3)nc21 [ralimetinib]
Method in brief: as §1

[10] = compound: CC(C)(O)CC(=O)NCCn1ccc2ncnc(Nc3ccc(Oc4cccc(C(F)(F)F)c4)c(Cl)c3)c21
Method in brief: as §1

[11] = compound: CC(C)C1=C2N=C(C=C(N2N=C1)NCC3=CC=CC=C3)NCCCCCCN
Method in brief: as §1

[12] = compound: CC1=C(C(CC(=O)N1)C2=CC=C(C=C2)C(F)(F)F)C(=O)NC3=C(C=C4C(=C3)C=NN4)F
Method in brief: as §1

[13] = compound: CC1=C(C2=C(C=C1)C(=O)C3=CC=CC=C3N2CCCN)C
Method in brief: as §1

[14] = compound: CC1=C(C=C(C=C1)NC(=O)C2=CC(=CC=C2)C(C)(C)C#N)NC3=CC4=C(C=C3)N=CN(C4=O)C
Method in brief: as §1

[15] = compound: CC1=C(C=C(C=C1)NC(=O)C2=CC(=CC=C2)N(C)C)NC(=O)C3=CC=C(C=C3)O
Method in brief: as §1

[16] = compound: CC1=CC=C(C=C1)SC2=C3C=C(SC3=CN=C2)C(=O)N
Method in brief: as §1

Measured: log2 fold change

RIOK3 (UniProt O14730)
inactive: erlotinib 0.043 | [1] -0.114 | [2] -0.057 | [3] 0.029 | [4] -0.011 | [5] 0.023 | [6] 0.092 | [7] 0.016 | [8] -0.006 | IRAK-1-4 Inhibitor I 0.016 | ibrutinib -0.021 | [9] -0.013 | ralimetinib 0.055 | [10] 0 | [11] 0.054 | [12] -0.011 | [13] -0.023 | [14] 0.001 | [15] 0.011 | [16] -0.093

RP2 (UniProt O75695)
inactive: erlotinib 0.004 | [1] 0.193 | [2] 0.025 | [3] 0.024 | [4] 0.03 | [5] -0.028 | [6] 0.097 | [7] 0.002 | [8] -0.009 | IRAK-1-4 Inhibitor I 0.022 | ibrutinib 0.009 | [9] 0.031 | ralimetinib -0.006 | [10] 0.031 | [11] -0.058 | [12] 0.057 | [13] 0.001 | [14] -0.039 | [15] 0.03 | [16] 0.017

RHOU (UniProt Q7L0Q8)
inactive: erlotinib -0.052 | [1] 0.07 | [2] -0.096 | [3] -0.054 | [5] 0.002 | [6] 0.061 | [7] -0.006 | [8] 0.03 | IRAK-1-4 Inhibitor I -0.089 | [9] -0.007 | ralimetinib 0.057 | [10] 0.009 | [11] 0.066 | [12] 0.012 | [13] 0.015 | [14] -0.003 | [15] 0.019 | [16] 0.045

RPIA (UniProt P49247)
inactive: erlotinib -0.038 | [1] 0.008 | [2] -0.007 | [3] -0.005 | [4] 0.002 | [5] -0.032 | [6] -0.026 | [7] 0.017 | [8] 0.043 | IRAK-1-4 Inhibitor I 0.004 | ibrutinib 0.008 | [9] 0.034 | ralimetinib 0.015 | [10] -0.023 | [11] -0.015 | [12] 0 | [13] -0.023 | [14] 0.012 | [15] -0.021 | [16] -0.006

RNF115 (UniProt Q9Y4L5)
inactive: [1] -0.021 | [3] -0.015 | [6] -0.042 | [12] 0.139 | [14] 0.039

RLF (UniProt Q13129)
inactive: [9] 0.018 | [12] -0.046 | [13] 0.055 | [14] 0.087 | [16] 0

RPAIN isoform 8 (UniProt Q86UA6)
inactive: [1] 0.03 | [3] 0.038 | [4] 0.064 | [6] -0.013 | [7] -0.045 | [8] 0.01 | ibrutinib 0.065
